Measured values as given in paper PMC11840735.

By UniProt entry, the sequences of proteins in these tests, tags left out.
UniProt Q6P6C2: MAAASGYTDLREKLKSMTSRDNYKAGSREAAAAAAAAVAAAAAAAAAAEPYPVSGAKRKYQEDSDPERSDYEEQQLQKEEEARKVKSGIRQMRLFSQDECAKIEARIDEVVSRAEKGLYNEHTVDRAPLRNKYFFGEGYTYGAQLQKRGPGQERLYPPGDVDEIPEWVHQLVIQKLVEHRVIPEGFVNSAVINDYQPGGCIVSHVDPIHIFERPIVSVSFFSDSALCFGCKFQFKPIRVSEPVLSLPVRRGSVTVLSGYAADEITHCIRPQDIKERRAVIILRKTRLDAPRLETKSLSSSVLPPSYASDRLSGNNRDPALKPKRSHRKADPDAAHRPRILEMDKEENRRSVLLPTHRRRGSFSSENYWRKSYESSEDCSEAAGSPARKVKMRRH
UniProt Q9P289: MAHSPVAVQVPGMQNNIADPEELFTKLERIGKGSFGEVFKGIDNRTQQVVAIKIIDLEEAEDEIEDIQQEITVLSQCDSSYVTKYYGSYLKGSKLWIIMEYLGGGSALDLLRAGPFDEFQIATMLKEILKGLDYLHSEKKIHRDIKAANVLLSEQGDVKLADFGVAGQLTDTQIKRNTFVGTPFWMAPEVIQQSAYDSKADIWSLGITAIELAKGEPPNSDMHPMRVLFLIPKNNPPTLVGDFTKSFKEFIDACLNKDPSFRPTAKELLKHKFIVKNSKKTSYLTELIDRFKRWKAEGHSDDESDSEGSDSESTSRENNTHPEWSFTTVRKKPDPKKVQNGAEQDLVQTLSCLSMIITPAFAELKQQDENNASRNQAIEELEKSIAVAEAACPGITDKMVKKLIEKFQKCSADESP

Target: endogenous ALKBH5 of GSCs (human (endogenous in patient-derived GSCs)) (UniProt Q6P6C2)
Assay: affinity purification with mass spectrometry; proteins immunoprecipitated with an antibody specific to ALKBH5 in GSCs (GSC 83), analysed by mass spectrometry

endogenous MST4 of GSCs (from UniProt Q9P289 1-416) (enzyme)
binding: binds

Results are given in words; binding and its absence hold for the method and conditions named. Binding seen in cells or lysates may run through a third protein. These calls come from enrichment with a bait or labelling near it, and not all partners need be listed.
